Experimental data reported in patent publication US20260258428.

Experiments:
[1] = target: T1, Ara h 2 (Ara-H2 peanut allergen) (Arachis hypogaea) (UniProt Q6PSU2); assay: binding assay; settings: purified native protein, label: biotin, single-stranded DNA
T1 sequence (limits assumed): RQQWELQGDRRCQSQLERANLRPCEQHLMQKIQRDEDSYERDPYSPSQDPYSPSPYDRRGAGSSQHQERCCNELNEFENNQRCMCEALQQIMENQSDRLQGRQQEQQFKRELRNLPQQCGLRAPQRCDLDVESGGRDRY

[2] = target: T1, Ara h 2 (Ara-H2 peanut allergen) (Arachis hypogaea); assay: activity in cells; settings: purified native protein, single-stranded DNA

CATGGCGGGGGGGGGGGCAGAAGGGGGGGGGGGTGGTTTA [R2-11]
binding result ([1]; ELISA on immobilized Ara-H2, 10 nM biotinylated aptamer, absorbance below R5-24 and R3-21): binds | functional effect of the aptamer ([2]; 5 uM aptamer inhibits degranulation of RBL-2H3 cells induced by crude peanut extract (not purified Ara-H2)): active

CGTGGCGGGGGGGGGGGCAGAAGGGGGGGGGGGTGGATTA [R3-21]
binding result ([1]; ELISA on immobilized Ara-H2, 10 nM biotinylated aptamer, absorbance below R5-24): binds | functional effect of the aptamer ([2]; 5 uM aptamer inhibits Ara-H2/IgE degranulation of RBL-2H3 cells, 37 C, also with crude peanut extract (FIGS. 4-5)): active

TAGGGAAGAGAAGGACAATGATTTTGGGCGGGTTGAGGTGGGGGAGGAGGAGGTAGTTAGAGTTGACTAGTACATGACCACTTGA [SB3L]
binding result ([1]; ELISA, little binding above background, non-specific control): no binding

TGTAGCGGGGGGGGGGGCAGAAGGGGGGGGGGGTGGATTA [R5-24]
binding result ([1]; ELISA on immobilized Ara-H2, 10 nM biotinylated aptamer, streptavidin-HRP, highest absorbance): binds | functional effect of the aptamer ([2]; 5 uM aptamer inhibits Ara-H2/IgE degranulation of RBL-2H3 cells, 37 C, also with crude peanut extract (FIG. 4)): active

For at least one entry, the source does not settle the construct or the ends of the probe. For some of these results: No signal at the amounts used counts as a negative. Where a protein sequence is shown, tags need not be part of it.
